Test results: publication doi:10.1101/2020.05.04.076752
These are yes or no findings as the source states them, for the method shown. In cells and extracts the contact can be indirect. Some results given as binding are weak or reduced against the parent protein; the word gives no strength.

Sequences of proteins named here, by UniProt entry; tags and fusion partners are left off.
UniProt P35638: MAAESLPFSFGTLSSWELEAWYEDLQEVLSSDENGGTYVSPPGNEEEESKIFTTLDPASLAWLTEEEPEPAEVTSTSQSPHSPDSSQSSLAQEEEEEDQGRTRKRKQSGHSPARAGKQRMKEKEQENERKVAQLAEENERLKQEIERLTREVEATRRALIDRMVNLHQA
UniProt P05412: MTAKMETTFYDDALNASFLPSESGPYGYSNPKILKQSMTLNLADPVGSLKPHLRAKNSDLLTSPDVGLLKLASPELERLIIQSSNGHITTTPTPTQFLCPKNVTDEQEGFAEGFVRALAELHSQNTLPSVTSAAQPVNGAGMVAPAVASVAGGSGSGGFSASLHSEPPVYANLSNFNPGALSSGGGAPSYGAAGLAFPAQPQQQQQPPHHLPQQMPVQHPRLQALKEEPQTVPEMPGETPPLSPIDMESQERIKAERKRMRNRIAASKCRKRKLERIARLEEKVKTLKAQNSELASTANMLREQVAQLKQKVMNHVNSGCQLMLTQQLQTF

Target: CHOP-3XFLAG fusion protein (human) (UniProt P35638)
Assay: co-IP

binding: binds
Substance: c-JUN-MYC fusion protein (from UniProt P05412 1-331)
